Earlier results in patent EP2111852A2, “Nutritious hair treatment method” (Henkel AG & Co. KGaA, priority 2008, dated 2009).
For at least one compound, name, drawing or mass did not settle the structure.

Settings: in Haarwassern

Nc1cc(N2CCCCC2)nc(N)[n+]1[O-] [Minoxidil]
Anteil löslich: ≤ 5%
